Test results taken from PMC12320973.
Numbering of substitutions follows the chain as printed. Names and notes keep the numbering of the source. Results are given in words; binding and its absence hold for the method and conditions named. In cells and extracts the contact can be indirect. A result given as binding can be weak or reduced; the word gives no strength. Blank lines part the entries; values can stand above or below the binder they belong to.

By UniProt entry, the sequences of proteins in these tests, tags left out. Where a name states a change or a piece, a line headed by the entry shows the natural chain unless it says otherwise.
UniProt Q96KP1: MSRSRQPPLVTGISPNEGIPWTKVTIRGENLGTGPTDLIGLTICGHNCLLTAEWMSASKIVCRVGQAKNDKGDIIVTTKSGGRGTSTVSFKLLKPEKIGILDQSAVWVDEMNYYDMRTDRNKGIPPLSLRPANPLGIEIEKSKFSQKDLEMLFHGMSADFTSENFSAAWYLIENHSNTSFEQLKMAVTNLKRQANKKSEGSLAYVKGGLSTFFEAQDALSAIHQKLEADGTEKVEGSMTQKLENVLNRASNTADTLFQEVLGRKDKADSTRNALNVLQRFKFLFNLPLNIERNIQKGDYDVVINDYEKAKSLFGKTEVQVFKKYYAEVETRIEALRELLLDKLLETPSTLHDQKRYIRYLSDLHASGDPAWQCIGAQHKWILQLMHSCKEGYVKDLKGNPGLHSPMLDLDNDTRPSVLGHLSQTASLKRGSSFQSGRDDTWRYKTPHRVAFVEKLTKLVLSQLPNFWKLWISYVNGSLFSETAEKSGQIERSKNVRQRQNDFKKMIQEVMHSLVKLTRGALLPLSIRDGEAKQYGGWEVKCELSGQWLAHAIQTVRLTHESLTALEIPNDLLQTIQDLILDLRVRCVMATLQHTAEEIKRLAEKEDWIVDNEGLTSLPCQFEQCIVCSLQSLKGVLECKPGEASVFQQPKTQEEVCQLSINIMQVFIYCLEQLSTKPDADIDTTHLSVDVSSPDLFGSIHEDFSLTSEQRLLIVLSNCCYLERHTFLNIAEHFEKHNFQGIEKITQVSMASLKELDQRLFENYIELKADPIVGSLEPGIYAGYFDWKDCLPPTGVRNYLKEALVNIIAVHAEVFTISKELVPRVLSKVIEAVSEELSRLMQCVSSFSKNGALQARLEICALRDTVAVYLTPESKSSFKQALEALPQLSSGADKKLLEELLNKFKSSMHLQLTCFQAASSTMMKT

Target: GST-Sec5 Ral binding domain (RBD) (UniProt Q96KP1)
Experiment: pull-down; GST-Sec5 RBD as bait on glutathione sepharose beads; 400 ul lysate of control, Cas9 control, RALA KO and RALA (WT/S194A/S194D) reconstituted MCF7 and MiaPaCa2 cells, with or without DMSO, DEX, 0.02 uM free MLN8237 or VMLN; western blot for RALA and RALB; only the target purified

B1: WT-RALA (protein, UniProt P11233 1-206)
chain: MAANKPKGQNSLALHKVIMVGSGGVGKSALTLQFMYDEFVEDYEPTKADSYRKKVVLDGEEVQIDILDTAGQEDYAAIRDNYFRSGEGFLCVFSITEMESFAATADFREQILRVKEDENVPFLLVGNKSDLEDKRQVSVEEAKNRAEQWNVNYVETSAKTRANVDKVFFDLMREIRARKMEDSKEKNGKKKRKSLAKRIRERCCIL
- binding: binds

B2: S194A-RALA (protein, UniProt P11233 1-206)
chain: B1 chain with S194A
- binding: binds

B3: RALA (endogenous, MCF7 and MiaPaCa2 cells) (protein, UniProt P11233 1-206)
chain: B1 chain
- binding: binds

Now from value to binder:

- binding: binds
B4: S194D-RALA (protein, UniProt P11233 1-206)
chain: B1 chain with S194D

- binding: binds
B5: RALB (endogenous, MCF7 and MiaPaCa2 cells) (protein, UniProt P11234 1-206)
chain: MAANKSKGQSSLALHKVIMVGSGGVGKSALTLQFMYDEFVEDYEPTKADSYRKKVVLDGEEVQIDILDTAGQEDYAAIRDNYFRSGEGFLLVFSITEHESFTATAEFREQILRVKAEEDKIPLLVVGNKSDLEERRQVPVEEARSKAEEWGVQYVETSAKTRANVDKVFFDLMREIRTKKMSENKDKNGKKSSKNKKSFKERCCLL
